Results deposited as PubChem BioAssay AID504791 (Drosophila RNAi Screening Center, 2011)

Test: 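Factors in Argonaute-based small RNA production and activity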 (primary screen)
Cells: Drosophila S2-derived reporter cells
Reagent: long dsRNA against Drosophila genes, about 150-250 ng dsRNA per well (siRNA assay); about 80-120 ng (miRNA assay)
Duration: about 5 days (siRNA assay); about 4 days (miRNA assay)
Treatment: copper sulfate induction of reporters: 25 µM (siRNA assay); 200 mM stated (miRNA assay), 1-2 days before reading
Detection: 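Dual luciferase assay: Renilla to firefly signal ratio in each well, scaled to the mean ratio of its plate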
Hit rule: 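First-pass picks had plate-scaled ratios over 1.5 for the siRNA assay, over 1.6 for the miRNA assay, or under 0.6; two distinct dsRNAs had to score alike on retest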
The screen tested about 23,000 reagents; below is a random part of those that have a named target and a result. In the full data, 199 (0.86%) are marked active. 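Plate-scaled ratios behind the calls are not deposited; printed light signals are raw; many rows marked increased or decreased are still called inactive.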 Reagents against one gene are numbered here. Not stated in the record: the direction of the score.

gene,reagent no.,stable siRNA reporter change,"stable assay Renilla, run 1 (luminescence)","stable assay firefly, run 1 (luminescence)",activity call
CG4286,1,,6771,4.45e5,inactive
LamC,1,,7950,4.12e5,inactive
jbug,1,,5722,2.70e5,inactive
jbug,2,,6631,2.84e5,inactive
jbug,3,,5639,3.40e5,inactive
jbug,4,,6906,5.14e5,inactive
CG15739,1,,5839,5.21e5,inactive
Cpr64Ab,1,,5647,3.05e5,inactive
Osi14,1,,6180,5.17e5,inactive
CG34029,1,,6166,4.05e5,inactive
CG4660,1,,6023,2.73e5,inactive
eRF1,1,,7515,3.81e5,inactive
laza,1,,10528,4.24e5,inactive
laza,2,,3739,3.25e5,inactive
CG34026,1,,6215,4.11e5,inactive
CG17350,1,,6448,3.81e5,inactive
CG8468,1,,7696,4.63e5,inactive
CG11317,1,,8478,4.63e5,inactive
CG10991 (retired record),1,,7678,3.69e5,inactive
Abcd1,1,reporter ratio raised past the hit cutoff,21194,4.75e5,inactive
CG15109,1,,5755,3.10e5,inactive
CG30053,1,,5278,2.72e5,inactive
Papss,1,,9483,4.30e5,inactive
Su(var)3-7,1,,7367,3.54e5,inactive
CG15927,1,,5283,5.57e5,inactive
Neto,1,,5163,3.82e5,inactive
Neto,2,,8356,5.82e5,inactive
Neto,3,,4311,3.35e5,inactive
Neto,4,,4403,3.42e5,inactive
exu,1,,9382,3.36e5,inactive
CG34406 (retired record),1,,39764,1.75e5,inactive
CG34406 (retired record),2,,7827,4.78e5,inactive
slbo,1,,3939,4.67e5,inactive
eIF3f1,1,,5916,3.29e5,inactive
CG30047,1,,5620,3.07e5,inactive
Btnd,1,,5407,2.86e5,inactive
Pkc53E,1,,6807,4.06e5,inactive
Pkc53E,2,,8803,2.82e5,inactive
CG14820,1,,5560,3.35e5,inactive
CG5112,1,reporter ratio raised past the hit cutoff,17123,5.49e5,inactive
Cda9,1,,6683,3.46e5,inactive
Myo95E,1,,11083,3.49e5,inactive
alpha4GT2,1,,6795,3.82e5,inactive
CG34304 (retired record),1,,5267,3.72e5,inactive
Gr10b,1,,5398,6.02e5,inactive
CG34008,1,,5383,4.85e5,inactive
roq,1,,8700,2.58e5,inactive
Eaf6,1,,6094,3.93e5,inactive
DIP-delta,1,,6843,2.88e5,inactive
DIP-delta,2,,5638,3.24e5,inactive
Cp15,1,,5487,3.58e5,inactive
Cpr51A,1,,6851,3.46e5,inactive
CG14270,1,,6183,4.76e5,inactive
Mzt1,1,,5975,4.94e5,inactive
CG42542,1,,6686,3.93e5,inactive
CG42542,2,,10106,5.35e5,inactive
CG46298,1,,7076,3.31e5,inactive

Part of the list above, reformatted:
Btnd → stable assay Renilla, run 1 (luminescence) = 5407; stable assay firefly, run 1 (luminescence) = 2.86e5; activity call = inactive
Pkc53E #1 → stable assay Renilla, run 1 (luminescence) = 6807; stable assay firefly, run 1 (luminescence) = 4.06e5; activity call = inactive
Pkc53E #2 → stable assay Renilla, run 1 (luminescence) = 8803; stable assay firefly, run 1 (luminescence) = 2.82e5; activity call = inactive
CG14820 → stable assay Renilla, run 1 (luminescence) = 5560; stable assay firefly, run 1 (luminescence) = 3.35e5; activity call = inactive
CG5112 → stable siRNA reporter change = reporter ratio raised past the hit cutoff; stable assay Renilla, run 1 (luminescence) = 17123; stable assay firefly, run 1 (luminescence) = 5.49e5; activity call = inactive
Cda9 → stable assay Renilla, run 1 (luminescence) = 6683; stable assay firefly, run 1 (luminescence) = 3.46e5; activity call = inactive
Myo95E → stable assay Renilla, run 1 (luminescence) = 11083; stable assay firefly, run 1 (luminescence) = 3.49e5; activity call = inactive
